The results in this text go back to US20180171382.

What all share (test): flow cytometry
In general terms: In flow cytometry, cells or beads pass a laser one at a time.

Data set [1] concerns B cell receptor (IgD-BCR, membrane IgD) on Ramos cells. Conditions: protein on the cell surface; protein details: endogenous, IgM KO Ramos cells; label: fluorescent (FACS staining); single-stranded DNA.
Data set [2] deals with B cell receptor (IgM-BCR, membrane IgM) on Ramos cells. Conditions: protein on the cell surface; protein details: endogenous, IgD KO Ramos cells; label: fluorescent (FACS staining); single-stranded DNA.
The test system of data set [3] is B cell receptor (BCR) on Ramos cells. Conditions: Oligo Extensions complementary to Z-DNA Probes attached by synthesis; bPHA on Ramos cell surface; TD05+ and TD05- pair detects resting BCR oligomers; negative without Z-DNA probes; protein on the cell surface; protein details: endogenous, Ramos cells; single-stranded DNA; variant of TD05 aptamer.

Construct, isoform or probe ends are uncertain for at least one entry. Results from cells or extracts need not show a direct contact.

Turning to “ACCGGGAGGATAGTTCGGTGGCTGTTCAGGGTCTCCTCCCGGTG [TD05 aptamer]”, the binding result in data set [1] and in data set [2] was “binds” throughout.

On to “ACCGGGAGGATAGTTCGGTGGCTGTTCAGGGTCTCCTCCCGGTG [TD05+/TD05- aptamer pair with Oligo Extensions]”, for which the binding result in data set [3] is on record as “binds”.
